This is one part of the list.
Each sequence was assayed against T1, OsSMF1 (Oryza sativa, UniProt Q6ZLB0 1-436) (assay: protein-binding microarray (RPBM); PBS, 2% BSA, 51.3 ng/ul salmon testes DNA, 50 uM zinc acetate, 200 nM TF, 25 C, 1 h; high values mean tight binding). Conditions: protein: recombinant; tags: N-terminal polyhistidine and DsRed monomer fusion (pET32a); chain copies: 2; label: CyDye5-dUTP incorporated in the synthesized complementary strand; 3' TTTTT single-stranded linker to array surface; dsDNA, one strand shown.
T1 sequence: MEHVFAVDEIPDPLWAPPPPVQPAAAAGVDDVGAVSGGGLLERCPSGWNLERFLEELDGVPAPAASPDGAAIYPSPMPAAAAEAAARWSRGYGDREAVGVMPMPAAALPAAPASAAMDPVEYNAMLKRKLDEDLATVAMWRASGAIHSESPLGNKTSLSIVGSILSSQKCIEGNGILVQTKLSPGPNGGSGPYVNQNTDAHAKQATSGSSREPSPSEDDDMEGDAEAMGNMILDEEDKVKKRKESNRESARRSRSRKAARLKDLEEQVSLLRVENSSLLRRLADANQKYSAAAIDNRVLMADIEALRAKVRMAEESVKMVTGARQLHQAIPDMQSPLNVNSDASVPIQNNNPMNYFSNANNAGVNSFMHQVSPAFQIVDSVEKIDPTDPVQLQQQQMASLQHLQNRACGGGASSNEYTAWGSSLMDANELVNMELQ
How it was run: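 Transcription factors, each fused N-terminally to a polyhistidine tag and DsRed, were expressed in E. coli BL21-CodonPlus and purified on Ni–NTA. A custom Agilent array was made double-stranded by primer extension with Cy5-dUTP and blocked with 2% BSA. It was incubated with 200 nM protein in PBS, 2% BSA, salmon testes DNA and 50 µM zinc acetate at 25 °C for 1 h, then washed. The binding signal is per-feature fluorescence intensity (arbitrary units) read on an Axon 4000B scanner.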

Sequence	binding signal
GGTGATCACATTGGCCCTTTCAACCTGGGAAACCCAGGAGCGGAGTCACCTAGTGCAG	26000 fluorescence intensity (a.u.)
GTCCAAGAAGCCTCCATGGCCATGGATCTCACCTCCTCCTCGGAGTCACCTAGTGCAG	3170 fluorescence intensity (a.u.)
CCAGTCCAATACCTCCAACCCAAGTCTTCTTCCTCGTCTCCGGAGTCACCTAGTGCAG	10700 fluorescence intensity (a.u.)
CCCACACCACCTCTCATCGACTCATTTGCTTGCATCTTCCCGGAGTCACCTAGTGCAG	3220 fluorescence intensity (a.u.)
AACTCCGAGCGTTGCTATGGGAGTTCCGTAAAATAGTAATCGGAGTCACCTAGTGCAG	39300 fluorescence intensity (a.u.)
GGTCTCCACGCCTACGCATCCACGTCTCCAGCCAGGTCCACGGAGTCACCTAGTGCAG	3540 fluorescence intensity (a.u.)
GCGGCGGAGGCGTACCTGAAGCAGTGTCAGGTAGCTCGACCGGAGTCACCTAGTGCAG	4470 fluorescence intensity (a.u.)
AACGTCTTGCTGATTGTGATCCTCGTGTCCTAAAAGAACACGGAGTCACCTAGTGCAG	3610 fluorescence intensity (a.u.)
CCGCTGCCCAAGGTTGCCGAGTCGGCTACTGCTGTCTGAGCGGAGTCACCTAGTGCAG	3730 fluorescence intensity (a.u.)
GGGCAGCGTGTACAAGCCGGACAACGTGTCGCCGCCGGAGCGGAGTCACCTAGTGCAG	3340 fluorescence intensity (a.u.)
TACGGCCACGCATCTGGAGTCAGTGCTGACGAGCACACAACGGAGTCACCTAGTGCAG	3920 fluorescence intensity (a.u.)
TCGGTCATGATGTCGCTACCCTTTCTTATTGTCGGCGTTGCGGAGTCACCTAGTGCAG	3240 fluorescence intensity (a.u.)
AAACATTTCCCTTTTAAGTTGAGCTGTCATAAATCATAATCGGAGTCACCTAGTGCAG	3170 fluorescence intensity (a.u.)
AGCTCTACAAGGACCTAAAATTAAGGGTGCCAACTATTAGCGGAGTCACCTAGTGCAG	3410 fluorescence intensity (a.u.)
AAGGGGAGATCACACACTGAGTCACTGACTGACTAAATCGCGGAGTCACCTAGTGCAG	4010 fluorescence intensity (a.u.)
CGTTGTCAACCCTACCATCCCCAAACTGGTCCCGTTCGTTCGGAGTCACCTAGTGCAG	31300 fluorescence intensity (a.u.)
AACTTCTAAAATTATAAGAAAAGTACGTCAGTATTATTTGCGGAGTCACCTAGTGCAG	3810 fluorescence intensity (a.u.)
TGGTGTCCTCTGTTATCGATTATCAACGTGGGAGTAAATCCGGAGTCACCTAGTGCAG	4650 fluorescence intensity (a.u.)
CCCACAACCAAATCAACAACCACGCCATTGCCGTTCTCTCCGGAGTCACCTAGTGCAG	3520 fluorescence intensity (a.u.)
TGTGCTTGGAAATCAAAGATTGGATGTCACGTGTAGTACGCGGAGTCACCTAGTGCAG	3560 fluorescence intensity (a.u.)
CTGTCCACGCTATTGCCATTGCATGACCACGTTAAACACCCGGAGTCACCTAGTGCAG	3640 fluorescence intensity (a.u.)

Some of the entries so far, comma-delimited.
Sequence,binding signal
TCGGTCATGATGTCGCTACCCTTTCTTATTGTCGGCGTTGCGGAGTCACCTAGTGCAG,3240 fluorescence intensity (a.u.)
AAACATTTCCCTTTTAAGTTGAGCTGTCATAAATCATAATCGGAGTCACCTAGTGCAG,3170 fluorescence intensity (a.u.)

(next part)

Sequence	binding signal
CCGGTTTTATCTAACGTGGCGGATGAGTCAGCGTGAGACCCGGAGTCACCTAGTGCAG	14600 fluorescence intensity (a.u.)
GAAGAATAGGGAGTCACACATTAAATCCGAGAAAGTCAATCGGAGTCACCTAGTGCAG	3640 fluorescence intensity (a.u.)
TTTGACGGTAACACATATGGCTGTGCGTGGCTCCACCATTCGGAGTCACCTAGTGCAG	3620 fluorescence intensity (a.u.)
ACAAGAAGACATGAACATCAAGTGAAGCAGGGAGGGGCACCGGAGTCACCTAGTGCAG	11900 fluorescence intensity (a.u.)
CTGATATCTGTCTTCACATAGATTAGGAGCAAAATTTATCCGGAGTCACCTAGTGCAG	31000 fluorescence intensity (a.u.)
CAATATCTATGCTTTTGTCTGACGTCTTGGATATCTCCATCGGAGTCACCTAGTGCAG	3390 fluorescence intensity (a.u.)
GAATAGAACATGTACAGTGACACATCTGCATTGGAAGCGTCGGAGTCACCTAGTGCAG	7380 fluorescence intensity (a.u.)
AGGTGAGCGCCGCTGTGCTCACCTAACCCACACACGTGGCCGGAGTCACCTAGTGCAG	7480 fluorescence intensity (a.u.)
TTCCCCTTCTGTTACGTGACACACCCGGCTGCTACCGCACCGGAGTCACCTAGTGCAG	3700 fluorescence intensity (a.u.)
CACACTACTTTCCACTACTCTATCAAGTGCATCTCCAAATCGGAGTCACCTAGTGCAG	7110 fluorescence intensity (a.u.)
TTTCGAACTCACTAATCCCAATTCCCACGCAACATTGTCCCGGAGTCACCTAGTGCAG	3180 fluorescence intensity (a.u.)
CTACTAATAAGGCGTGTTATTATTGGTCATCAATGGCGTCCGGAGTCACCTAGTGCAG	3300 fluorescence intensity (a.u.)
AAAGTAGTTTTACACGTAAATCGGGCGCTGACGTTATCAGCGGAGTCACCTAGTGCAG	5310 fluorescence intensity (a.u.)
TTAAGTCCCTGGATCCAAACACCACGTGAGTCGACAGTTGCGGAGTCACCTAGTGCAG	3270 fluorescence intensity (a.u.)
ACCTGTGAATGTCTCTAGTGTGACGACTCTACTTCAGTTTCGGAGTCACCTAGTGCAG	4050 fluorescence intensity (a.u.)
CCCGTTAGGAGAGTTCATAAACGGCGTCACTGCTGGTTTTCGGAGTCACCTAGTGCAG	3640 fluorescence intensity (a.u.)
CTCTATCTCTCACTCTGAATTCTGAAAATGATCAGTTCCTCGGAGTCACCTAGTGCAG	16600 fluorescence intensity (a.u.)
AAATGGGTCATTTTCTTGCCACCTCCATGTTGGTAATGTGCGGAGTCACCTAGTGCAG	4180 fluorescence intensity (a.u.)
AAGTCTAACTGGGATCCACCTACTTCTCCTCTCACTGCCGCGGAGTCACCTAGTGCAG	5930 fluorescence intensity (a.u.)
GGGCTCCACGTTAGCTCCGGGCCCACGTGTCATCGGCTATCGGAGTCACCTAGTGCAG	23000 fluorescence intensity (a.u.)
TTTGTTGTGCAGACCTGCTTGTGACATTGCAATTTCTGGTCGGAGTCACCTAGTGCAG	4450 fluorescence intensity (a.u.)
